Measurements as given in patent US20240183842A1, “Supercharged Biovesicles and Methods of Use Thereof” (The General Hospital Corporation, priority 2021, published 2024).

Experiments:
[1] = Ni-NTA resin pull-down of free recombinant His-tagged GFP proteins (EV-free); settings: suspensions of recombinant protein without EVs
EVs from HEK293T cells = assay: Ni-NTA pull-down after incubation of recombinant proteins with purified EVs (EV association); type: binding, human; settings: incubated with purified EVs from HEK293T cells, then Ni-NTA resin
HEK293T EVs = assay: Enzymatic deglycosylation of EVs before +scProtein loading (Ni-NTA pull-down); type: binding, human; settings: EV pretreatment with enzyme, compared to non-treated samples

Row | Substance | detectable fluorescence intensity captured by Ni-NTA resin [1] [%] | GFP fluorescence remained in suspension (EVs from HEK293T cells) [%] | fold decrease of +scProtein fluorescence in the supernatant after Ni-NTA pull-down (HEK293T EVs) [fold]
1 | +scGFP: positive supercharged eGFP, SEQ ID NO:2, recombinant His-tagged (Addgene #62937) | 99.3±0.19 | 55.9±6.8 | 
2 | Heparinase I |  |  | 74.1
3 | Heparinase III |  |  | 84.70
4 | eGFP | 98.8±2.1 | 96.1±7.1 | 
5 | −scGFP: negative supercharged eGFP, SEQ ID NO:3, recombinant His-tagged (Addgene #62936) | 99.1±0.13 | 99±0.3 | 
